Test results taken from PMC6366968.
No constants are given. Whether binding was seen depends on the method and setting. In cells and extracts the contact can be indirect. Some entries that bind do so weakly or less than the wild type.

Protein sequences, listed by entry. Tags and fused reporters are not part of them.
UniProt Q14457: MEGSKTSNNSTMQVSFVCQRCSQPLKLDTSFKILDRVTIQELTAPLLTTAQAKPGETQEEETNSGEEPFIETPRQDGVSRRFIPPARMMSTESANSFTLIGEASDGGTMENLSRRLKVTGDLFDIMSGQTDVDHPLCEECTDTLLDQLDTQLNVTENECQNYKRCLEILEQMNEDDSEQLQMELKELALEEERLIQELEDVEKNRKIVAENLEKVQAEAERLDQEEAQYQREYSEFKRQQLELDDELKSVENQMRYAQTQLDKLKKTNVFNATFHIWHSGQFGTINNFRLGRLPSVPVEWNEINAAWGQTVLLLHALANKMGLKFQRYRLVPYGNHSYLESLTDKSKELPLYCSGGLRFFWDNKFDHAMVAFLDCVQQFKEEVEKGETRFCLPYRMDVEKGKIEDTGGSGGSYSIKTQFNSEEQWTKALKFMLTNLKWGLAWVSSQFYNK

Molecular target: T1, BCL2L10 (human (endogenous in Hep3B)) (UniProt Q9HD36)
T1 sequence: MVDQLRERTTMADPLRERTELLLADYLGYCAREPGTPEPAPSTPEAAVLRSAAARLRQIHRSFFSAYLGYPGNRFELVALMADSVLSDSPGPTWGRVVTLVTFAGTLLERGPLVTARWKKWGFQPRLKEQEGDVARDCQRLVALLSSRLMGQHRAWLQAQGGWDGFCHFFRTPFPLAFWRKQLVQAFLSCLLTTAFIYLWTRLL
Assay: co-IP; Hep3B cells (NC, pcDNA3.1-BCL2L10 or si-BCL2L10) in complete medium (CM) or EBSS starvation medium for 6 h; EBC lysis buffer; BCL2L10 precipitated, Beclin 1 detected by Western blot

For Beclin 1 (from UniProt Q14457 1-450), the binding was “binds”.
